Results deposited as PubChem BioAssay AID1259254 (NCATS, 2017)
Here is a random part of about 59,000 reagents. About 1,550 of all reagents (2.6%) were called active. 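G2 share is only a proxy for re-replication; each gene was hit by three separate siRNAs, and active genes were retested.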 A number with no mark means an inactive call. The numbers tell different reagents against one gene apart. Not all columns of the deposit are shown. Not stated in the record: the amount of reagent.

Test: 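Gene knock-downs that lead to re-replication, shown by excess G2 DNA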 (primary screen)
System: human HCT116 colorectal cancer cells
Reagent: single siRNA against human genes
Duration: 3 days
Measured: 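Nuclei stained with Hoechst and imaged; cell-cycle phase assigned by DNA content; G2 share scaled per plate, non-targeting siRNA 0%, GMNN siRNA 100%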
Scale: G2 robust z-score: higher = more G2 cells, more excess DNA replication
Active means: 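Active siRNAs have a G2 robust z of 5 or more median absolute deviations over the median, which in these data means about 38% or higher of GMNN control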

GPR85 (G protein-coupled receptor 85) #1 | G2 robust z-score: -0.408
GPR85 (G protein-coupled receptor 85) #2 | G2 robust z-score: 0.0222
GPR85 (G protein-coupled receptor 85) #3 | G2 robust z-score: -0.641
DDX23 (DEAD-box helicase 23) #1 | G2 robust z-score: 0.761
DDX23 (DEAD-box helicase 23) #2 | G2 robust z-score: 2.63
DDX23 (DEAD-box helicase 23) #3 | G2 robust z-score: -0.176
ZNF358 (zinc finger protein 358) #1 | G2 robust z-score: -0.863
ZNF358 (zinc finger protein 358) #2 | G2 robust z-score: 5.53 (active)
ZNF358 (zinc finger protein 358) #3 | G2 robust z-score: 2.38
ASPSCR1 (ASPSCR1 tether for SLC2A4, UBX domain containing) #1 | G2 robust z-score: 0.168
ASPSCR1 (ASPSCR1 tether for SLC2A4, UBX domain containing) #2 | G2 robust z-score: 1.47
ASPSCR1 (ASPSCR1 tether for SLC2A4, UBX domain containing) #3 | G2 robust z-score: -1.02
PCDHB4 (protocadherin beta 4) #1 | G2 robust z-score: 0.242
PCDHB4 (protocadherin beta 4) #2 | G2 robust z-score: -0.523
PCDHB4 (protocadherin beta 4) #3 | G2 robust z-score: -1.12
LPIN2 (lipin 2) #1 | G2 robust z-score: -0.424
LPIN2 (lipin 2) #2 | G2 robust z-score: -0.225
LPIN2 (lipin 2) #3 | G2 robust z-score: -1.01
TMEM176A (transmembrane protein 176A) #1 | G2 robust z-score: 0.793
TMEM176A (transmembrane protein 176A) #2 | G2 robust z-score: 2.6
TMEM176A (transmembrane protein 176A) #3 | G2 robust z-score: 2.64
CIROZ #1 | G2 robust z-score: -0.549
CIROZ #2 | G2 robust z-score: 0.429
CIROZ #3 | G2 robust z-score: -0.0668

Targets above whose target name starts with D or d (3):
DDX23 (DEAD-box helicase 23) #1 | G2 robust z-score: 0.761
DDX23 (DEAD-box helicase 23) #2 | G2 robust z-score: 2.63
DDX23 (DEAD-box helicase 23) #3 | G2 robust z-score: -0.176
